Experimental data: PubChem BioAssay AID1259322 (Peter MacCallum Cancer Centre, 2017)
Screen: 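Kinases required for PAR2 to open the TRPV4 channel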 (follow-up of hits). Cell system: human HEK293 cells with stable inducible TRPV4. Reagents: single siRNA against human genes. Challenge: PAR2 activation; agonist identity, dose and timing not stated. Detection: 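Intracellular calcium followed live by Fura-2 imaging; early peak reflects PAR2, later plateau reflects TRPV4 opening; each as % of mock transfection on the same plate, averaged over two plates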. Reading the numbers: TRPV4 plateau calcium, % of mock: higher = stronger PAR2-dependent TRPV4 calcium entry; PAR2 peak calcium, % of mock: higher = stronger direct PAR2 calcium response. Call rule: 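a knock-down counts as active when the PAR2 peak exceeds 79% of mock yet the TRPV4 plateau is below 90% of mock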.
Shown is an unselected part of 208 reagents tested. 72 of them (35%) count as active. 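Four separate siRNAs per kinase gene, 52 genes in all; PAR2 agonist unnamed, with its dose and timing unknown.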 Reagents against one gene are numbered here. Not given: the amount of reagent, the time to read-out.

| gene symbol | reagent no. | TRPV4 plateau calcium, % of mock | PAR2 peak calcium, % of mock | Outcome |
| --- | --- | --- | --- | --- |
| PHKG2 (phosphorylase kinase catalytic subunit gamma 2) | 1 | 88.5 | 93.3 | active |
| PHKG2 (phosphorylase kinase catalytic subunit gamma 2) | 2 | 111 | 103 | inactive |
| PHKG2 (phosphorylase kinase catalytic subunit gamma 2) | 3 | 85.1 | 87 | active |
| PHKG2 (phosphorylase kinase catalytic subunit gamma 2) | 4 | 107 | 98.4 | inactive |
| TWF2 (twinfilin actin binding protein 2) | 1 | 70.1 | 67.8 | inactive |
| TWF2 (twinfilin actin binding protein 2) | 2 | 67.7 | 70.2 | inactive |
| TWF2 (twinfilin actin binding protein 2) | 3 | 86 | 81.6 | active |
| TWF2 (twinfilin actin binding protein 2) | 4 | 82.8 | 87.1 | active |
| FGFR4 (fibroblast growth factor receptor 4) | 1 | 82.2 | 86.9 | active |
| FGFR4 (fibroblast growth factor receptor 4) | 2 | 55.6 | 62.6 | inactive |
| FGFR4 (fibroblast growth factor receptor 4) | 3 | 91.5 | 101 | inactive |
| FGFR4 (fibroblast growth factor receptor 4) | 4 | 65.5 | 74.8 | inactive |
| RIPK2 (receptor interacting serine/threonine kinase 2) | 1 | 80.5 | 85.7 | active |
| RIPK2 (receptor interacting serine/threonine kinase 2) | 2 | 73.2 | 78.1 | inactive |
| RIPK2 (receptor interacting serine/threonine kinase 2) | 3 | 94.3 | 103 | inactive |
| RIPK2 (receptor interacting serine/threonine kinase 2) | 4 | 96.4 | 101 | inactive |
| PIK3C2A | 1 | 85.2 | 91.2 | active |
| PIK3C2A | 2 | 74.3 | 77.7 | inactive |
| PIK3C2A | 3 | 71.7 | 66.3 | inactive |
| PIK3C2A | 4 | 61.5 | 58.3 | inactive |
| SIK2 (salt inducible kinase 2) | 1 | 81.8 | 78.8 | inactive |
| SIK2 (salt inducible kinase 2) | 2 | 78.2 | 88.4 | active |
| SIK2 (salt inducible kinase 2) | 3 | 56.6 | 51.8 | inactive |
| SIK2 (salt inducible kinase 2) | 4 | 59.7 | 51 | inactive |
| SIK3 (SIK family kinase 3) | 1 | 105 | 106 | inactive |
| SIK3 (SIK family kinase 3) | 2 | 90.1 | 73.3 | inactive |
| SIK3 (SIK family kinase 3) | 3 | 90.7 | 107 | inactive |
| SIK3 (SIK family kinase 3) | 4 | 79.1 | 89.7 | active |
| BRSK2 (BR serine/threonine kinase 2) | 1 | 99.2 | 99.6 | inactive |
| BRSK2 (BR serine/threonine kinase 2) | 2 | 91.8 | 101 | inactive |
| BRSK2 (BR serine/threonine kinase 2) | 3 | 89.6 | 101 | active |
| BRSK2 (BR serine/threonine kinase 2) | 4 | 84.7 | 91.7 | active |
| PIK3C3 (phosphatidylinositol 3-kinase catalytic subunit type 3) | 1 | 70.4 | 70 | inactive |
| PIK3C3 (phosphatidylinositol 3-kinase catalytic subunit type 3) | 2 | 82.2 | 102 | active |
| PIK3C3 (phosphatidylinositol 3-kinase catalytic subunit type 3) | 3 | 68.9 | 69.5 | inactive |
| PIK3C3 (phosphatidylinositol 3-kinase catalytic subunit type 3) | 4 | 99.6 | 94.8 | inactive |
